According to paper doi:10.1101/2020.03.16.993188 (bioRxiv, 2020):
Results are given in words; binding and its absence hold for the method and conditions named. In cells and extracts the contact can be indirect. These calls come from enrichment with a bait or labelling near it, and not all partners need be listed.

Experiments:
[1] = target: T1, Synechocystis sp. PCC 6803 GCS P-protein (glycine decarboxylase), recombinant (Synechocystis sp. PCC 6803) (UniProt P74416); assay: affinity purification with mass spectrometry
T1 sequence: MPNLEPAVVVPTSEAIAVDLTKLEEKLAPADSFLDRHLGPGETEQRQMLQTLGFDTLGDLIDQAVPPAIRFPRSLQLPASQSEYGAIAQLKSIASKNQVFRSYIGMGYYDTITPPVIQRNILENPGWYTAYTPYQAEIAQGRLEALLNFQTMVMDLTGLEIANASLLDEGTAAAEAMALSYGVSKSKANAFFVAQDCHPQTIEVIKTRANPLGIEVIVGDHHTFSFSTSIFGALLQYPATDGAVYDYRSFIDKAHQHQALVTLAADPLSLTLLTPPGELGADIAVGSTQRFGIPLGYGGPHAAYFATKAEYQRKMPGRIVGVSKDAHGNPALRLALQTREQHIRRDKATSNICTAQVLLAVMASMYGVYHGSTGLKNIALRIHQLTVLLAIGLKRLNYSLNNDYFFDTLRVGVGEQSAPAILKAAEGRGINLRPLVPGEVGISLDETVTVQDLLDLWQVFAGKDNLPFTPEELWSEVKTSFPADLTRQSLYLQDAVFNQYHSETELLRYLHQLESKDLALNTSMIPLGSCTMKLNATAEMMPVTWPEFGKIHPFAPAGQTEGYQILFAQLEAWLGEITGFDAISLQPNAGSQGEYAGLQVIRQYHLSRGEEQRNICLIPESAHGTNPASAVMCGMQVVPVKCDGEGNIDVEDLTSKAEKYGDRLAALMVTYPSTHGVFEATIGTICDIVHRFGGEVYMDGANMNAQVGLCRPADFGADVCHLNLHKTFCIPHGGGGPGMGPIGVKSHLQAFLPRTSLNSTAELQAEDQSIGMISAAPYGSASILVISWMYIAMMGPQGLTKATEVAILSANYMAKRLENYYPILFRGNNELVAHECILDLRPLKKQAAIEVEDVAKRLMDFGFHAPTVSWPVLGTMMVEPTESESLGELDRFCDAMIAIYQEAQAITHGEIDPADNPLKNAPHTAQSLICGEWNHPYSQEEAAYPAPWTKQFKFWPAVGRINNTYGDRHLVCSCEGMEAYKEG

[2] = target: T2, Synechocystis sp. PCC 6803 GCS L-protein (dihydrolipoamide dehydrogenase), recombinant (Synechocystis sp. PCC 6803) (UniProt P72740); assay: affinity purification with mass spectrometry
T2 sequence: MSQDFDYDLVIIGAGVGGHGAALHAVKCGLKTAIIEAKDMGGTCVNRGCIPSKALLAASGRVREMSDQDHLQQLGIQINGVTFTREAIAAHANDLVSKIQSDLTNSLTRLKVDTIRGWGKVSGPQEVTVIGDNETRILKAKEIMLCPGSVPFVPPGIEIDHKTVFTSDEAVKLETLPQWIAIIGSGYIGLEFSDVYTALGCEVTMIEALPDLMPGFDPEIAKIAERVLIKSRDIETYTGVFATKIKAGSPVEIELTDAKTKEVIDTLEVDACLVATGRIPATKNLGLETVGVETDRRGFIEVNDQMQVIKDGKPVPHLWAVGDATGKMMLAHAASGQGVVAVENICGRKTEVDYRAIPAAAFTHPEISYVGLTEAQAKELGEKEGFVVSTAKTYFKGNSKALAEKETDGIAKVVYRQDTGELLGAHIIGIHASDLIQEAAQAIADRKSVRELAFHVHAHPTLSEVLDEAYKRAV

B1: Synechocystis H-protein, endogenous in Synechocystis lysate (protein, UniProt P73560 1-132)
chain: MELEHPDDLYYLDSHEYVRFDGETATIGLSAFAVDELGDIVFVELPEEGDKVEFEQSMGAVESVKAASDLYSPVTGTVIEKNSALEDQPELLNQDPYGEEGWLIKVRLDDVEDAKEGLMAAGDYRATLETGD
[1]
  binding: binds
[2]
  binding: binds
